Assay results: publication PMC3680417, “Phosphorylation of the Leukemic Oncoprotein EVI1 on Serine 196 Modulates DNA Binding, Transcriptional Repression and Transforming Ability”
For at least one entry, the source does not settle the construct or the ends of the probe. Weaker means in comparison with the reference protein, sequence or condition of that experiment. Where a protein sequence is shown, tags need not be part of it.

System: T1, GST-Evi1 ZF1-7 S196D (mouse)
T1 sequence (looked up, limits assumed): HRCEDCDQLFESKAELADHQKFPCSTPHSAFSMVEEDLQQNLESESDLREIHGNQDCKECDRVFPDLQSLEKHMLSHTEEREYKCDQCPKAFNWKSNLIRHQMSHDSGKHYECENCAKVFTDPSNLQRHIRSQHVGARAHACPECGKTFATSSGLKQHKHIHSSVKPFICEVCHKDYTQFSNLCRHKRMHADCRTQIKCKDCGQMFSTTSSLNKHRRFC
Experiment: EMSA
Details: native 5% acrylamide gel; pH and temperature not stated; recombinant protein; protein details: GST (N-terminal, pGEX); label: 5' IRDye

Question: Does “ACCCATGGAGCTTTGAGCCCTGTTATCTTGTCAGGGAAGTGTACCATGGA (double strand) [EVI1 ZF1-7 target EMSA probe]” bind?
Answer: binds more weakly
